The source of these data is doi:10.1101/2024.01.05.574348.

By UniProt entry, the sequences of proteins in these tests, tags left out. Residues count along the entry.
UniProt P02787, residues 20-698: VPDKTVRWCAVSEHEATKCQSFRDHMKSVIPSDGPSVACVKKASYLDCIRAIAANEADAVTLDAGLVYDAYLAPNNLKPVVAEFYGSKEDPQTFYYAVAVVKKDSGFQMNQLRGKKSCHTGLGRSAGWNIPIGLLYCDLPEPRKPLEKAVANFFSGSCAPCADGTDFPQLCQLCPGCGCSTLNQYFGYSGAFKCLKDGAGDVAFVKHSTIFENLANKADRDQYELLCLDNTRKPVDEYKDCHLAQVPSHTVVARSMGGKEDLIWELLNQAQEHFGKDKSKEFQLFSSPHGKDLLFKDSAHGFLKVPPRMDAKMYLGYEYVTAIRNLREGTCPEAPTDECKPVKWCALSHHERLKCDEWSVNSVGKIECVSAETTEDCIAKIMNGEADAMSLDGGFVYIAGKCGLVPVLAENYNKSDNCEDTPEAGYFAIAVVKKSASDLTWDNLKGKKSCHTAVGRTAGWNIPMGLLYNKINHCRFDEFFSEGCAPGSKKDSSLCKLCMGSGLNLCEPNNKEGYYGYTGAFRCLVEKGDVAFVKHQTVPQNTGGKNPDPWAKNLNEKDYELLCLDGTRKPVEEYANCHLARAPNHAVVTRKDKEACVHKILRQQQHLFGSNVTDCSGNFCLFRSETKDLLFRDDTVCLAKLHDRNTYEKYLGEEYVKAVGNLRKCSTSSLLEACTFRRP
UniProt P04406: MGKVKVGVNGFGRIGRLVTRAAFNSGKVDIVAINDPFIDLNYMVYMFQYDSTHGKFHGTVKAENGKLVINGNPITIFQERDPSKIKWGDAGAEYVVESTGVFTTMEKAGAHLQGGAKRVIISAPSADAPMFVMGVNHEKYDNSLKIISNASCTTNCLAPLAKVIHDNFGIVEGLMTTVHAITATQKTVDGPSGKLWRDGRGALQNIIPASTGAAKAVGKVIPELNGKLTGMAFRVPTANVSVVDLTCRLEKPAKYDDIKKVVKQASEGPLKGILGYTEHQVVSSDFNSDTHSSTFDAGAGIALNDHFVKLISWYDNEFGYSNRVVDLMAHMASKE

This experiment has as its target biotinylated apo-transferrin (UniProt P02787). As to the kind of experiment: pull-down.

No constants are given. Whether binding was seen depends on the method and setting. In cells and extracts the contact can be indirect. Some entries that bind do so weakly or less than the wild type.

For the substance “Glyceraldehyde-3-phosphate dehydrogenase (GAPDH) (from UniProt P04406 1-335)”, the binding result was “binds”.
